Changes are numbered by the printed parent chain. These are yes or no findings as the source states them, for the method shown. In cells and extracts the contact can be indirect. Some entries that bind do so weakly or less than the wild type. Sequences can lack the tags named with a protein. Each block holds one molecule with its values, some of them ahead of it.
Key:
MBP-RBM7^1–86 (human) = biological target: T1, MBP-RBM7^1–86 (human) (UniProt Q9Y580); assay: pull-down; MBP-RBM7 1-86, GST-ZCCHC8^Pro and TRX-SAP145^Pro co-expressed; MBP-binding amylose beads
T1 sequence: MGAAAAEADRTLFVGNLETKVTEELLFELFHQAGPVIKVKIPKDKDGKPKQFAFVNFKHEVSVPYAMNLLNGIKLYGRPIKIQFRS

The chains behind the UniProt entries cited, without tags or fusion partners. Residues count along the entry.
UniProt Q13435, residues 603-647: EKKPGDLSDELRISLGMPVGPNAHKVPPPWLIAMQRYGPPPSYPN

GST-tagged hMTR4 (human) = biological target: T2, GST-tagged hMTR4 (human) (UniProt P42285); assay: pull-down; GST pull-down; proteins expressed individually in bacteria, cells mixed before lysis; GSH-Sepharose beads, buffer with 500 mM NaCl; Coomassie-stained SDS-PAGE
T2 sequence: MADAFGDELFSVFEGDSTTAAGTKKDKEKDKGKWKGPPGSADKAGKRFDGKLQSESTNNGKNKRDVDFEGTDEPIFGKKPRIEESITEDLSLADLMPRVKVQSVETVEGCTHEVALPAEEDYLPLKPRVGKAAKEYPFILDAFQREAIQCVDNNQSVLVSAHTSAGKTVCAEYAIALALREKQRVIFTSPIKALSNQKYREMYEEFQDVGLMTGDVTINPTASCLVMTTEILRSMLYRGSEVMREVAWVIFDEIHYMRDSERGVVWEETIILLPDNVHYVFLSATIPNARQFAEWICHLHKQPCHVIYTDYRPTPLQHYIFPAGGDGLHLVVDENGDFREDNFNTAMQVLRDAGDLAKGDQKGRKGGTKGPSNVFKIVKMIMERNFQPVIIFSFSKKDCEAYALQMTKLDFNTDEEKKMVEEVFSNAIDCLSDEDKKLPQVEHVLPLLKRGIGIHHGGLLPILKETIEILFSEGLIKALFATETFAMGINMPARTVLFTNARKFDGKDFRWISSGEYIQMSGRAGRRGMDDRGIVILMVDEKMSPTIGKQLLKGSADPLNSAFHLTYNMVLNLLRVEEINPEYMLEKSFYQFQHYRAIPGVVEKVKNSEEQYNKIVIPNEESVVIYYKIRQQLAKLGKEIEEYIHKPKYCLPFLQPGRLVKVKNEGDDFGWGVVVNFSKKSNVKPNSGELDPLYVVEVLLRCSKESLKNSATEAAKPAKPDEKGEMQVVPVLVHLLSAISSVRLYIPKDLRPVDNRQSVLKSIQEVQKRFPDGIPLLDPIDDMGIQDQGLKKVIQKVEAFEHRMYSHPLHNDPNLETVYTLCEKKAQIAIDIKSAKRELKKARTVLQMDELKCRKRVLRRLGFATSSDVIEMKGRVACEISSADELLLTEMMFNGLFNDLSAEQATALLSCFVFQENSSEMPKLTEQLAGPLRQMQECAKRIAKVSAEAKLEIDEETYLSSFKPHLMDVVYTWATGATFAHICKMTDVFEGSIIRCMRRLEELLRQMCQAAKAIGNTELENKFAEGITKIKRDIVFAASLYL

[1] = biological target: GST-tagged SAP145^Pro (SAP145 residues 603–647) (UniProt Q13435); assay: pull-down; GST pull-down; GST-tagged bait co-expressed with the partner in bacteria; glutathione sepharose beads with lysate 2 h, 20 mM Tris/HCl pH 7.5, 500 mM NaCl, 0.1% NP40; eluted with 30 mM glutathione; Coomassie-stained SDS-PAGE

binding (MBP-RBM7^1–86 (human)): binds
Molecule: TRX-SAP145^Pro (from UniProt Q13435 603-647) (domain or fragment)

binding (GST-tagged hMTR4 (human)): binds
B1: Z-tagged ZCCHC8 (protein, UniProt Q6NZY4 1-707)
chain: MAAEVYFGDLELFEPFDHPEESIPKPVHTRFKDDDGDEEDENGVGDAELRERLRQCEETIEQLRAENQELKRKLNILTRPSGILVNDTKLDGPILQILFMNNAISKQYHQEIEEFVSNLVKRFEEQQKNDVEKTSFNLLPQPSSIVLEEDHKVEESCAIKNNKEAFSVVGSVLYFTNFCLDKLGQPLLNENPQLSEGWEIPKYHQVFSHIVSLEGQEIQVKAKRPKPHCFNCGSEEHQMKDCPMPRNAARISEKRKEYMDACGEANNQNFQQRYHAEEVEERFGRFKPGVISEELQDALGVTDKSLPPFIYRMRQLGYPPGWLKEAELENSGLALYDGKDGTDGETEVGEIQQNKSVTYDLSKLVNYPGFNISTPRGIPDEWRIFGSIPMQACQQKDVFANYLTSNFQAPGVKSGNKRSSSHSSPGSPKKQKNESNSAGSPADMELDSDMEVPHGSQSSESFQFQPPLPPDTPPLPRGTPPPVFTPPLPKGTPPLTPSDSPQTRTASGAVDEDALTLEELEEQQRRIWAALEQAESVNSDSDVPVDTPLTGNSVASSPCPNELDLPVPEGKTSEKQTLDEPEVPEIFTKKSEAGHASSPDSEVTSLCQKEKAELAPVNTEGALLDNGSVVPNCDISNGGSQKLFPADTSPSTATKIHSPIPDMSKFATGITPFEFENMAESTGMYLRIRSLLKNSPRNQQKNKKASE

binding [1]: binds
B2: His-Z-tagged RBM7^1–86 (domain or fragment, UniProt Q9Y580 1-86)
chain: T1 sequence

binding [1]: binds
B3: RBM7^RRM patch 1 mutant (Leu25Glu and Leu29Glu) (domain or fragment, UniProt Q9Y580 1-86)
chain: T1 sequence with L25E, L29E

— publication PMC5146272, “Structure of the RBM7–ZCCHC8 core of the NEXT complex reveals connections to splicing factors” (Nature Communications, 2016)
